Values from PubChem BioAssay AID504774 (Drosophila RNAi Screening Center, 2011)

- Test: 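Fly genes whose loss alters survival after alkylation damage to DNA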 (primary screen)
- Cell system: Drosophila Kc167 cells
- Knock-down reagent: long dsRNA against Drosophila genes, about 0.25 µg dsRNA per well
- Duration: about 6 days: 3 days knock-down, then 3 days with or without MMS
- Treatment: methyl methanesulphonate 0.004% (w/v) for 3 days after knock-down
- Measurement: 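ATP-dependent luminescence as a measure of live cells in MMS-exposed wells, quantile normalised within each plate, with replicate values also given as a mean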
- Direction: mean viability with MMS: higher = more surviving cells after MMS
The screen tested about 23,000 reagents; this is a random part of those with a known target gene and a result. 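Values are quantile-normalised luminescence on an arbitrary scale; higher means more cells surviving MMS.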 Names joined by + are all predicted targets of the reagent. Not all columns of the deposit are shown. No sequences are given here.

no.	gene	DRSC id	mean viability with MMS
1	CG32119	DRSC09248	3.83e6
2	CG32119	DRSC21462	3.39e6
3	CG30159	DRSC04981	3.69e6
4	CG8191 + CG12379	DRSC19451	3.42e6
5	CG14515	DRSC14867	3.51e6
6	CG13631	DRSC14632	3.65e6
7	CG13631	DRSC23168	3.45e6
8	snz	DRSC17969	3.49e6
9	RpS23	DRSC07169	3.10e6
10	CG14893	DRSC15015	3.50e6
11	CG1603	DRSC06602	3.08e6
12	CG6654	DRSC16084	3.50e6
13	CG8064	DRSC16373	3.36e6
14	Srp14	DRSC15797	3.64e6
15	hbt	DRSC02503	3.43e6
16	hbt	DRSC23270	3.63e6
17	kmg	DRSC02829	3.66e6
18	tsu	DRSC07265	3.36e6
19	CG33098	DRSC22903	3.51e6
20	Enoph	DRSC12201	3.51e6
21	Tnpo	DRSC11309	3.31e6
22	Atg8b	DRSC14501	3.50e6
23	CG31792	DRSC02604	3.55e6
24	CG11927	DRSC00337	3.42e6
25	fliI	DRSC20578	1.85e6
26	CG31323	DRSC14901	3.31e6
27	lncRNA:sphinx	DRSC17199	3.47e6
28	Ttc19	DRSC02474	3.53e6
29	spidey	DRSC17932	3.48e6
30	CG5386	DRSC15788	3.15e6
31	CG8360	DRSC03085	3.73e6
32	CG12115	DRSC17811	3.70e6
33	CG34125	DRSC00850	3.30e6
34	Socs16D	DRSC20087	3.44e6
35	Socs16D	DRSC23165	3.51e6
36	CG1440	DRSC17915	3.88e6
37	MsrA	DRSC11159	3.46e6
38	Pdi	DRSC11250	3.55e6
39	teq	DRSC10298	3.33e6
40	teq	DRSC11301	3.33e6
41	teq	DRSC11302	3.40e6
42	eIF3j	DRSC06107	3.42e6
43	Nle	DRSC00763	3.60e6
44	Cyp309a2	DRSC00526	3.46e6
45	Jon25Bi	DRSC03434	3.49e6
46	CG8916	DRSC20120	3.53e6
47	ItgaPS4	DRSC06630	3.47e6
48	mgr	DRSC16099	3.58e6
49	Pask	DRSC04337	3.50e6
50	CG9386	DRSC16485	3.62e6
51	CG31952	DRSC00428	3.67e6
52	CG31952	DRSC21997	3.60e6
53	CG13643	DRSC14641	3.56e6
54	CG13643	DRSC14642	3.60e6
55	Pli	DRSC16792	3.35e6
56	Nmt	DRSC11236	3.46e6
57	CG16959	DRSC10230	3.66e6
58	RpL14	DRSC11269	3.15e6
59	kin17	DRSC11890	3.36e6
60	CG42271	DRSC19809	3.48e6
61	CG42271	DRSC22894	3.39e6
62	Or92a	DRSC16771	3.54e6
63	EMRE	DRSC06686	3.56e6
64	CG31797	DRSC02476	3.62e6
65	CG31797	DRSC02477	3.65e6
66	PIG-U	DRSC02193	3.35e6
67	Eig71Eg	DRSC11154	3.55e6
68	dve	DRSC04680	3.36e6
69	CG3588	DRSC18473	3.50e6
70	CG34050 (retired record)	DRSC09067	2.81e6
71	spaw	DRSC06824	3.49e6
72	Mzt1	DRSC07979	3.47e6
73	CG1275	DRSC08294	3.42e6
74	Sbat	DRSC00160	3.46e6
75	CG34148 + P5CDh2	DRSC13519	3.69e6
76	CG34188	DRSC05549	3.48e6
77	mxt	DRSC00551	3.38e6
78	pes	DRSC03033	3.67e6
79	Eglp3	DRSC04293	3.69e6
80	raw	DRSC03599	3.39e6
81	raw	DRSC03600	3.35e6
82	CG11470	DRSC14313	3.55e6
83	Snm1	DRSC12130	3.73e6
84	CG5968	DRSC02916	3.33e6
85	plu	DRSC07665	3.47e6
86	Rrp45	DRSC20198	3.41e6
87	Taf7	DRSC15445	3.36e6
